Results: PubChem BioAssay AID248 (DTP/NCI, 2004)
The list shows only some results of the screen, not a fair sample: it is rich in T/C values a quarter to a half above the control, in often repeated tests (any T/C) and in doses without a T/C. Further doses and runs are listed elsewhere. T/C gives the treated animals as a percentage of the vehicle group. Some entries give survivors of the animals treated and no T/C: the source files T/C as zero there, which appears to mark a toxic dose or a test without result, not a measured value. Some survivor counts are full or nearly so, which does not show that the dose was tolerated: the source hardly ever lists a survival T/C far under the control, and the zero likely stands for such cases as well. Counts of survivors are from the toxicity check (mostly the fifth day) where no day follows; animals may have died later. Schedules are NCI's codes, read here as Q, the interval in days (D) or hours (H), X, the number of doses. Some schedule codes hold Z or #, which are not explained here. For survival time, the PubChem record calls one and a half times the control and up active, and a quarter to a half above the control has no call in these data; cut-offs in other NCI protocols can differ.

System: L1210 leukemia ip in BDF1 mice, survival T/C
Experiment: NCI In Vivo Anticancer Drug Screen. Data for tumor model L1210 Leukemia (intraperitoneal) in B6D2F1 (BDF1) mice
Details: T/C endpoint: mean survival time, higher T/C = longer survival
[1] = dose: 200.0 mg/kg/injection, schedule: Q01DX009 (ip), vehicle: saline with Tween-80
[2] = dose: 200.0 mg/kg/injection, schedule: Q04DX003 (ip), vehicle: saline with Tween-80
[3] = dose: 400.0 mg/kg/injection, schedule: Q01DX009 (ip), vehicle: gum acacia
[4] = dose: 100.0 mg/kg/injection, schedule: Q04DX003 (ip), vehicle: saline with Tween-80
[5] = dose: 400.0 mg/kg/injection, schedule: Q04DX003 (ip), vehicle: saline with Tween-80
[6] = dose: 40.0 mg/kg/injection, schedule: Q01DX001 (ip), vehicle: carboxymethylcellulose (CMC)
[7] = dose: 80.0 mg/kg/injection, schedule: Q01DX001 (ip), vehicle: carboxymethylcellulose (CMC)
[8] = dose: 400.0 mg/kg/injection, schedule: Q04DX003 (ip), vehicle: Klucel (hydroxypropylcellulose) (HPC)
[9] = dose: 400.0 mg/kg/injection, schedule: Q01DX001 (ip), vehicle: saline
[10] = dose: 100.0 mg/kg/injection, schedule: Q04DX003 (ip), vehicle: saline
[11] = dose: 200.0 mg/kg/injection, schedule: Q04DX003 (ip), vehicle: saline
[12] = dose: 100.0 mg/kg/injection, schedule: Q01DX001 (ip), vehicle: saline
[13] = dose: 200.0 mg/kg/injection, schedule: Q01DX001 (ip), vehicle: carboxymethylcellulose (CMC)
[14] = dose: 200.0 mg/kg/injection, schedule: Q01DX001 (ip), vehicle: saline
[15] = dose: 400.0 mg/kg/injection, schedule: Q01DX001 (ip), vehicle: carboxymethylcellulose (CMC)

## O=C1c2cccc3c2C2(O)c4c1cccc4C(=O)c1cccc(c12)C3=O
[1]
  T/C: 134 % of control
dose: 400.0 mg/kg/injection, schedule: Q01DX009 (ip), vehicle: saline with Tween-80
  survivor count: 6 of 6

## CCOC(=O)c1ccc(N(Cc2cccc([N+](=O)[O-])c2)S(=O)(=O)c2ccc(C)cc2)cc1
dose: 300.0 mg/kg/injection, schedule: Q01DX001 (ip), vehicle: saline with Tween-80
  survivor count: 6 of 6

## CCOC(=O)C(O)c1ccc[nH]1 (stereo not drawn)
[2]
  survivor count: 6 of 6

## Fc1ccc([P+]2(c3ccc(F)cc3)C=C(c3ccccc3)[P+](c3ccc(F)cc3)(c3ccc(F)cc3)C=C2c2ccccc2)cc1
dose: 100.0 mg/kg/injection, schedule: Q01DX001 (ip), vehicle: saline with Tween-80
  survivor count: 0 of 6
dose: 200.0 mg/kg/injection, schedule: Q01DX001 (ip), vehicle: saline with Tween-80
  survivor count: 0 of 6
dose: 400.0 mg/kg/injection, schedule: Q01DX001 (ip), vehicle: saline with Tween-80
  survivor count: 0 of 6

## O=C1C=CC(=O)N1c1ccc(Cl)cc1
dose: 10.0 mg/kg/injection, schedule: Q01DX009 (ip), vehicle: Klucel (hydroxypropylcellulose) (HPC)
  survivor count: 3 of 6
dose: 20.0 mg/kg/injection, schedule: Q01DX009 (ip), vehicle: Klucel (hydroxypropylcellulose) (HPC)
  survivor count: 4 of 6
dose: 40.0 mg/kg/injection, schedule: Q01DX009 (ip), vehicle: Klucel (hydroxypropylcellulose) (HPC)
  survivor count: 2 of 6
dose: 60.0 mg/kg/injection, schedule: Q04DX003 (ip), vehicle: Klucel (hydroxypropylcellulose) (HPC)
  survivor count: 0 of 6
dose: 90.0 mg/kg/injection, schedule: Q04DX003 (ip), vehicle: Klucel (hydroxypropylcellulose) (HPC)
  survivor count: 0 of 6
dose: 135.0 mg/kg/injection, schedule: Q04DX003 (ip), vehicle: Klucel (hydroxypropylcellulose) (HPC)
  survivor count: 0 of 6

## S=C1NC(c2ccc(Cl)cc2)N2C(=S)NC(c3ccc(Cl)cc3)N12 (stereo not drawn)
[3]
  survivor count: 6 of 6

## COc1cc(Nc2ncnc(N)c2[N+](=O)[O-])cc(OC)c1OC
[4]
  survivor count: 6 of 6
[5]
  survivor count: 6 of 6

## N#CCN1CCCCC1
dose: 100.0 mg/kg/injection, schedule: Q01DX009 (ip), vehicle: saline
  survivor count: 0 of 6

## CC(=O)[O][Pb]([CH3])([CH3])[CH3]
dose: 20.0 mg/kg/injection, schedule: Q01DX001 (ip), vehicle: carboxymethylcellulose (CMC)
  survivor count: 0 of 4
[6]
  survivor count: 0 of 4
[7]
  survivor count: 0 of 4
[4]
  survivor count: 0 of 3
[2]
  survivor count: 0 of 3
[5]
  survivor count: 0 of 3

## C/C(=N\Nc1nc2ccccc2s1)c1ccc2c(c1)Sc1ccccc1O2
dose: 300.0 mg/kg/injection, schedule: Q04DX003 (ip), vehicle: saline
  survivor count: 6 of 6

## CC1=Nc2cc(C)c(C)cc2N=C(C)C1
dose: 400.0 mg/kg/injection, schedule: Q01DX009 (ip), vehicle: Klucel (hydroxypropylcellulose) (HPC)
  survivor count: 0 of 6
[8]
  survivor count: 2 of 6

## CC(CC(=O)N1CCCCC1)CC(=O)N1CCCCC1
[9]
  survivor count: 1 of 6

## O=C(c1ccc(C(=O)N2CC2)cc1)N1CC1
[6]
  survivor count: 3 of 6
[7]
  survivor count: 3 of 6
dose: 160.0 mg/kg/injection, schedule: Q01DX001 (ip), vehicle: carboxymethylcellulose (CMC)
  survivor count: 0 of 6

## CCOC(=O)CNN
dose: 32.0 mg/kg/injection, schedule: Q01DX009 (ip), vehicle: saline
  survivor count: 4 of 6
dose: 224.0 mg/kg/injection, schedule: Q01DX001 (ip), vehicle: saline
  survivor count: 0 of 6

## c1ccc2cnccc2c1
dose: 400.0 mg/kg/injection, schedule: Q01DX009 (ip), vehicle: saline
  survivor count: 0 of 6

## C[CH2][Sn]([Cl])([CH2]C)[O][Sn]([Cl])([CH2]C)[CH2]C
dose: 50.0 mg/kg/injection, schedule: Q04DX003 (ip), vehicle: saline
  survivor count: 0 of 3
[10]
  survivor count: 0 of 3
[11]
  survivor count: 0 of 3

## CC1CCC(C(C)C)C(NCc2ccccc2O)C1 (stereo not drawn)
dose: 200.0 mg/kg/injection, schedule: Q04DX003 (ip), vehicle: Klucel (hydroxypropylcellulose) (HPC)
  survivor count: 2 of 6
[8]
  survivor count: 0 of 6

## COC1CC(O[C@H]2CC[C@@]3(C)[C@H](CC[C@@H]4[C@@H]3CC[C@]3(C)[C@@H](C5=CC(=O)OC5)[C@@H](OC(C)=O)C[C@]43O)C2)OC(C)C1O (stereo partly drawn)
[12]
  survivor count: 0 of 6
[13]
  survivor count: 2 of 6
[14]
  survivor count: 0 of 6
[15]
  survivor count: 0 of 6
[9]
  survivor count: 0 of 6

## [N-]=[N+]=Nc1nc(Cl)nc2c1ncn2Cc1ccccc1
dose: 150.0 mg/kg/injection, schedule: Q01DX001 (ip), vehicle: other
  survivor count: 0 of 6
dose: 300.0 mg/kg/injection, schedule: Q01DX001 (ip), vehicle: other
  survivor count: 0 of 6

## CCCCNC(=O)Nc1ccc(Nc2ccccc2)cc1
[3]
  survivor count: 6 of 6

## Nc1c(F)c(N)c(F)c(F)c1F
[12]
  survivor count: 3 of 6
[14]
  survivor count: 0 of 6
[9]
  survivor count: 0 of 6

## COc1ccccc1N=Nc1c(O)n(-c2ccccc2OC)c(=S)n(-c2ccccc2)c1=O
dose: 400.0 mg/kg/injection, schedule: Q01DX001 (ip), vehicle: Klucel (hydroxypropylcellulose) (HPC)
  survivor count: 2 of 6

## N=C(N)Sc1cccc[n+]1[O-]
[9]
  survivor count: 0 of 6

## C=CCC(=O)O
dose: 55.0 mg/kg/injection, schedule: Q01DX Z (ip), vehicle: saline
  survivor count: 6 of 6

## CN=C(NC)c1ccc(NC(=O)c2ccc(C(=O)Nc3ccc(C(=NC)NC)c(C)c3)cc2)cc1C
dose: 55.0 mg/kg/injection, schedule: Q01DX Z (ip), vehicle: carboxymethylcellulose (CMC)
  survivor count: 2 of 6
dose: 60.0 mg/kg/injection, schedule: Q01DX Z (ip), vehicle: carboxymethylcellulose (CMC)
  survivor count: 2 of 6
dose: 120.0 mg/kg/injection, schedule: Q01DX Z (ip), vehicle: carboxymethylcellulose (CMC)
  survivor count: 0 of 6

## Cc1cc[n+](Cc2ccccc2Cl)cc1
dose: 50.0 mg/kg/injection, schedule: Q01DX001 (ip), vehicle: saline
  survivor count: 1 of 6
[12]
  survivor count: 0 of 6
[14]
  survivor count: 0 of 6

## CC[N+](C)(C)c1ccccc1
dose: 100.0 mg/kg/injection, schedule: Q04DX002 (ip), vehicle: saline
  survivor count: 0 of 3
dose: 200.0 mg/kg/injection, schedule: Q04DX002 (ip), vehicle: saline
  survivor count: 0 of 3
dose: 400.0 mg/kg/injection, schedule: Q04DX002 (ip), vehicle: saline
  survivor count: 0 of 3

## C[N+](C)(C)c1ccc(/C=C2/CCCCC2=O)cc1
[10]
  survivor count: 2 of 6
[11]
  survivor count: 0 of 6
dose: 400.0 mg/kg/injection, schedule: Q04DX003 (ip), vehicle: saline
  survivor count: 0 of 6

## CC1CN1S(=O)(=O)N1CC1C (stereo not drawn)
dose: 100.0 mg/kg/injection, schedule: Q01DX001 (ip), vehicle: carboxymethylcellulose (CMC)
  survivor count: 1 of 4
[13]
  survivor count: 0 of 4
[15]
  survivor count: 2 of 4

## NOCc1ccsn1
dose: 400.0 mg/kg/injection, schedule: Q01DX009 (ip), vehicle: sodium bicarbonate
  survivor count: 0 of 6
dose: 400.0 mg/kg/injection, schedule: Q04DX003 (ip), vehicle: other
  survivor count: 6 of 6

## COc1cc(OC)c2c(=O)c3ccccc3[nH]c2c1
[2]
  survivor count: 6 of 6

## CCCCP(=O)(CCCC)Oc1cccc([N+](=O)[O-])c1
[2]
  survivor count: 1 of 6
[5]
  survivor count: 1 of 6

## O=c1cc(/C=N/Nc2ccc([N+](=O)[O-])cc2[N+](=O)[O-])c2cccc3c2n1CCC3
[1]
  survivor count: 6 of 6
